# No constants are given. Whether binding was seen depends on the method and setting. Binding seen in cells or lysates may run through a third protein. Some results given as binding are weak or reduced against the parent protein; the word gives no strength.
# Molecular target: cellular prion protein PrP^C (mouse (endogenous in 1C11-derived cells)) (UniProt P04925)
# Test: co-IP
binder,measurement,value
"tissue non-specific alkaline phosphatase (TNAP) (enzyme, UniProt P09242 18-501) FVPEKERDPSYWRQQAQETLKNALKLQKLNTNVAKNVIMFLGDGMGVSTVTAARILKGQLHHNTGEETRLEMDKFPFVALSKTYNTNAQVPDSAGTATAYLCGVKANEGTVGVSAATERTRCNTTQGNEVTSILRWAKDAGKSVGIVTTTRVNHATPSAAYAHSADRDWYSDNEMPPEALSQGCKDIAYQLMHNIKDIDVIMGGGRKYMYPKNRTDVEYELDEKARGTRLDGLDLISIWKSFKPRHKHSHYVWNRTELLALDPSRVDYLLGLFEPGDMQYELNRNNLTDPSLSEMVEVALRILTKNLKGFFLLVEGGRIDHGHHEGKAKQALHEAVEMDQAIGKAGAMTSQKDTLTVVTADHSHVFTFGGYTPRGNSIFGLAPMVSDTDKKPFTAILYGNGPGYKVVDGERENVSMVDYAHNNYQAQSAVPLRHETHGGEDVAVFAKGPMAHLLHGVHEQNYIPHVMAYASCIGANLDHCAWAG",binding,binds

# From paper PMC2715859
